This is one part of the list. Residues, ends and D or L forms follow the SMILES beside them. *: point of attachment. Cbz = O=C(OCc1ccccc1)*
Experiments:
Experiment in all cases: log2 fold change, soluble protein after heating vs DMSO (PISA); higher = thermal stabilisation; K562 cells, 10 uM, 30 min; active = over 0.2 and 3.5 SD of the protein, either way, in both replicates (recomputed)
erlotinib = compound: C#Cc1cccc(Nc2ncnc3cc(OCCOC)c(OCCOC)cc23)c1 [erlotinib]
Method in brief: (§1)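 For each measurement, 10 μM compound was applied for 30 min to K562 cells at 2×10^6 cells/mL. Aliquots were heated for 3 min across 48°C-58°C, pooled, and extracted in PBS with 0.5% NP-40 at 4°C; the supernatant after 21,000xg for 90 min was soluble protein. This was quantified by TMTpro 16plex LC-MS/MS with channel sums equalised, and thermal stability was reported relative to control samples from duplicates, on a log2 fold-change scale.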

Amino acid sequences for entries named in this document (tags omitted). A change or cut given only in a name is not applied to a line headed by its entry.
UniProt P49916: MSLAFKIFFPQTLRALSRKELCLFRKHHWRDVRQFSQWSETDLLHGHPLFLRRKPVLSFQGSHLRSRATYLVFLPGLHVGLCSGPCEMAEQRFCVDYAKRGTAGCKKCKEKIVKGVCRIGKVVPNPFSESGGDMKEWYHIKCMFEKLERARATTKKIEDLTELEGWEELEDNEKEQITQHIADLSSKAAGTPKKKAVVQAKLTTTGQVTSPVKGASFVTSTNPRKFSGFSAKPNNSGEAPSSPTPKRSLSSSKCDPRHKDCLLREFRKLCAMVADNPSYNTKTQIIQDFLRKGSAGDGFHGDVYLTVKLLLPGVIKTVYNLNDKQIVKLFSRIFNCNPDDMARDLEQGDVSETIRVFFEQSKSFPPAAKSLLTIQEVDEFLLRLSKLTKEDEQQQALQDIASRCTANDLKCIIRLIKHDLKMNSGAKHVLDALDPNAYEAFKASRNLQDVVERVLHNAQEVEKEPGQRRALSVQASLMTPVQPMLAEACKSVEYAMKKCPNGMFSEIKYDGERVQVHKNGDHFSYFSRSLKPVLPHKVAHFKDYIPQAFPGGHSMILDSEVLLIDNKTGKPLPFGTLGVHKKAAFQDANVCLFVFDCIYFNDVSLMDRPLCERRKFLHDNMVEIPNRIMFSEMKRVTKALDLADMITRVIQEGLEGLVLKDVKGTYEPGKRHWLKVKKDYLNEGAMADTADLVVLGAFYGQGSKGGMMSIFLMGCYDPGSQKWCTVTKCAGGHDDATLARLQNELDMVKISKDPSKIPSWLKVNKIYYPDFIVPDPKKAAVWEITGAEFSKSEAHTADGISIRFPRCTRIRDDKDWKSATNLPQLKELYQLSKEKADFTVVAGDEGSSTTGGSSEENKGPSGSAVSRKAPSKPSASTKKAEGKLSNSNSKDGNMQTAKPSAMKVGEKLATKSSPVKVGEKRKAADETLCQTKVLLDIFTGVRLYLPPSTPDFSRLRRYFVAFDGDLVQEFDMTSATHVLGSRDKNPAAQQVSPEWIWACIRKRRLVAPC
UniProt Q6ZUX7: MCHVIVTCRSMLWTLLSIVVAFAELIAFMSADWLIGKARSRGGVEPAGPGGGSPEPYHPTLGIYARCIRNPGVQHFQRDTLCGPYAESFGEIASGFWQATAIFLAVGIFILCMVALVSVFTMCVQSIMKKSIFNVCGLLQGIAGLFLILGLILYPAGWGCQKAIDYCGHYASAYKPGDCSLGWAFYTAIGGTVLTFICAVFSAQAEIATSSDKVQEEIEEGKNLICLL
UniProt Q96PV6, whole entry, looked up: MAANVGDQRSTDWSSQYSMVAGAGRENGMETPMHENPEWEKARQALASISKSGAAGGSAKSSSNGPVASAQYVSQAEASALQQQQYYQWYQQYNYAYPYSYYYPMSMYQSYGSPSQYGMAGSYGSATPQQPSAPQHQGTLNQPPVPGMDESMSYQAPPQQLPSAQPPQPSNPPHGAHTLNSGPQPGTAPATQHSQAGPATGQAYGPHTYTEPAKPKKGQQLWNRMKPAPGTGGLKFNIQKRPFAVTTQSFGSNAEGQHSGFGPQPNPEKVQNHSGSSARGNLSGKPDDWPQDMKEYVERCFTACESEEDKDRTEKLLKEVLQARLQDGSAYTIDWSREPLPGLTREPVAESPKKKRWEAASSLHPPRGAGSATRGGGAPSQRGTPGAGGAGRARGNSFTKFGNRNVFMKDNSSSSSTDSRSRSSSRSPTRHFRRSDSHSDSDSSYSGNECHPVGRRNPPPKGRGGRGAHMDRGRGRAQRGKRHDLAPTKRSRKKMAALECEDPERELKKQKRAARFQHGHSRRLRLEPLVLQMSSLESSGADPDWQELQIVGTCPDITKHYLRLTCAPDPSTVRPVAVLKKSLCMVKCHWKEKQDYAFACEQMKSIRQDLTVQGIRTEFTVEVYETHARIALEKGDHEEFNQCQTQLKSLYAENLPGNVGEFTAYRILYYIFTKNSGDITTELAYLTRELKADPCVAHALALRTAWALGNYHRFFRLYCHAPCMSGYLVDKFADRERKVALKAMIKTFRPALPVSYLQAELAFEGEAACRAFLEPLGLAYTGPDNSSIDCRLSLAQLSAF
UniProt P20700: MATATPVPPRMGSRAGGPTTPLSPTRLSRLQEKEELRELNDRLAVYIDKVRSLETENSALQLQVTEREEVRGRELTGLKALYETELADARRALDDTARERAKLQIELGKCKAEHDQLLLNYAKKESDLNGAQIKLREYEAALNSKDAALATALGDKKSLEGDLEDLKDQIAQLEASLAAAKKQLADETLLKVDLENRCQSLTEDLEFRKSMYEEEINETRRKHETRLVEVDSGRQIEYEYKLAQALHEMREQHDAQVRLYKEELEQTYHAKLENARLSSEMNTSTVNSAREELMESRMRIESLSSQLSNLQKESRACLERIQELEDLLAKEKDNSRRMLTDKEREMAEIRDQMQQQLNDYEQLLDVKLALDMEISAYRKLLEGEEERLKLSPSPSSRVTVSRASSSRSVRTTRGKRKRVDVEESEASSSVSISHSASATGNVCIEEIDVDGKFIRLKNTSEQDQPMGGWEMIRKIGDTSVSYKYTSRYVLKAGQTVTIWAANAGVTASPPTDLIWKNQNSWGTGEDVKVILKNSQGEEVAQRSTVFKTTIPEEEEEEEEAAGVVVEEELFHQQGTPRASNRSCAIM
UniProt Q4G0J3: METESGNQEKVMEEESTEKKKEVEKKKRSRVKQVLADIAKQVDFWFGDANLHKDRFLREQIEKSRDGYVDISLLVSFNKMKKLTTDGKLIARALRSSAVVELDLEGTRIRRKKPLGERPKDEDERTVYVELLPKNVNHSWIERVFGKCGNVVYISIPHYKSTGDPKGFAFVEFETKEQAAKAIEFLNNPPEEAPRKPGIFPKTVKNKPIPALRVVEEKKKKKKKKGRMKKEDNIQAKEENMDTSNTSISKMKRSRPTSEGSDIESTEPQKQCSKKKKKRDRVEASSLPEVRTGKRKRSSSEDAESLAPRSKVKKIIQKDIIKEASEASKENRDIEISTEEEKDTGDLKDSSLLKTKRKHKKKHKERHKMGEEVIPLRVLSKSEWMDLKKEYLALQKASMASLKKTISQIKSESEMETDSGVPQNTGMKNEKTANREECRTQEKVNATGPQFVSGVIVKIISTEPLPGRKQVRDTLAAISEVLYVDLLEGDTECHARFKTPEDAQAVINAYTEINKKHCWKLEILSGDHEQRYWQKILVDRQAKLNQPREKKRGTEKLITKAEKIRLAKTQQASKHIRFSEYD
UniProt Q9BQD3: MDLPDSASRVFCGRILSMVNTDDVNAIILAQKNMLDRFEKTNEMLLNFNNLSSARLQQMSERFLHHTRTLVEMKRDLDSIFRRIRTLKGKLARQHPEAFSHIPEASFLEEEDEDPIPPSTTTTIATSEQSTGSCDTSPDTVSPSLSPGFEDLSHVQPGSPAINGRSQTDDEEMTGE
UniProt Q14739: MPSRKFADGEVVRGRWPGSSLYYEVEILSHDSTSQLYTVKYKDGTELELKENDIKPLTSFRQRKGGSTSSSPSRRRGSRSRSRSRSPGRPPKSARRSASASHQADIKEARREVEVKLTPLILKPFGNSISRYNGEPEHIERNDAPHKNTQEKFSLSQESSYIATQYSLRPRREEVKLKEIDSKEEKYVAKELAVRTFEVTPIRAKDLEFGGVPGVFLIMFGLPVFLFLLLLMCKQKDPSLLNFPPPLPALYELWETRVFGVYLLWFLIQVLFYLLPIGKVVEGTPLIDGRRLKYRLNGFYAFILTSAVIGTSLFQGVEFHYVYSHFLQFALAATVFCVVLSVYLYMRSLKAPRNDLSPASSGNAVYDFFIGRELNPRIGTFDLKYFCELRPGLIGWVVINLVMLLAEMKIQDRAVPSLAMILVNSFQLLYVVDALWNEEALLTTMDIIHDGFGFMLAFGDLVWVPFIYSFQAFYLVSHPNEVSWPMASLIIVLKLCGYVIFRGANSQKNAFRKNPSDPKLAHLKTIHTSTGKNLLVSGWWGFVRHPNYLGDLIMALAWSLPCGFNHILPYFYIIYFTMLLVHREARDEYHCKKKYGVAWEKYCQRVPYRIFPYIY
UniProt Q8NG48: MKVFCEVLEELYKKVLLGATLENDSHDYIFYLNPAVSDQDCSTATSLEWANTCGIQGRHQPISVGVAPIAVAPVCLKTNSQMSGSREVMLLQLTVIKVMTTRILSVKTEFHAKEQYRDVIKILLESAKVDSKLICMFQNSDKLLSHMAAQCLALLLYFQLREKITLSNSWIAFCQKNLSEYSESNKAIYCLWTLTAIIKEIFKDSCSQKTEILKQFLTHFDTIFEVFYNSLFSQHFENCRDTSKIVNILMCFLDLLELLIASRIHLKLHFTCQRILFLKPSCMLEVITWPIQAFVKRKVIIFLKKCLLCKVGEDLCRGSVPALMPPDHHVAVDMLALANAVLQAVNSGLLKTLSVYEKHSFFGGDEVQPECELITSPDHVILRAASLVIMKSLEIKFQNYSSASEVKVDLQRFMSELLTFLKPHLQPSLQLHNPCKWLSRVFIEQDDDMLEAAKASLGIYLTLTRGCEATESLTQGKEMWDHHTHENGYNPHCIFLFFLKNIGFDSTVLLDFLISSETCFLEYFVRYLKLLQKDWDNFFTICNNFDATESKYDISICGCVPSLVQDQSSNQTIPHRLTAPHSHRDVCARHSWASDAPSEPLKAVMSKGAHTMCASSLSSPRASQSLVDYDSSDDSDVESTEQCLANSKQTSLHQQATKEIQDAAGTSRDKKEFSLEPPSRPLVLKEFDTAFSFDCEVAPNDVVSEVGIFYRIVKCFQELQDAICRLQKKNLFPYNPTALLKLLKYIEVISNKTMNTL
UniProt Q9BT23: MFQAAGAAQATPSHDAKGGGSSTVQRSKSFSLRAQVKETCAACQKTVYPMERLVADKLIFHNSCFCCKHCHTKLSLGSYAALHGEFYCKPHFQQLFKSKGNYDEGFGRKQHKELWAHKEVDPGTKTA
UniProt Q71RC2, whole entry, looked up: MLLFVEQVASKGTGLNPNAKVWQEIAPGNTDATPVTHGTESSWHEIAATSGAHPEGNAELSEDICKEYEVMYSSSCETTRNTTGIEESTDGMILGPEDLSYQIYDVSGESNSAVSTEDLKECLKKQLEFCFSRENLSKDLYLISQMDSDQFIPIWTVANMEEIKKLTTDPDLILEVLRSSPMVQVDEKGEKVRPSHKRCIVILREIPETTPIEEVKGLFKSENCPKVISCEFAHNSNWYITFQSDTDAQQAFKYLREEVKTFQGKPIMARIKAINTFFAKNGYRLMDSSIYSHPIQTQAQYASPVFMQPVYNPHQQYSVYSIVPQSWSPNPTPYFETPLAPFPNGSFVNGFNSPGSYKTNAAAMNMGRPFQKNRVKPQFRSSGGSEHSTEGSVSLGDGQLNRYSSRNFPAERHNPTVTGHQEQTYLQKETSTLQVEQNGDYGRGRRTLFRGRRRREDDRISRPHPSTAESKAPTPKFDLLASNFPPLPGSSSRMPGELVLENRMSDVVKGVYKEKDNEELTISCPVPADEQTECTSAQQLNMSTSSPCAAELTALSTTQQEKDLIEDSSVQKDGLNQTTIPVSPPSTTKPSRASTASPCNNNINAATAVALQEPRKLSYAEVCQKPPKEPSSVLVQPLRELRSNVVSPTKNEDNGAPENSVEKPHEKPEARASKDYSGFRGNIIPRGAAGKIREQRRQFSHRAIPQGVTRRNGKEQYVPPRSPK
UniProt P49917: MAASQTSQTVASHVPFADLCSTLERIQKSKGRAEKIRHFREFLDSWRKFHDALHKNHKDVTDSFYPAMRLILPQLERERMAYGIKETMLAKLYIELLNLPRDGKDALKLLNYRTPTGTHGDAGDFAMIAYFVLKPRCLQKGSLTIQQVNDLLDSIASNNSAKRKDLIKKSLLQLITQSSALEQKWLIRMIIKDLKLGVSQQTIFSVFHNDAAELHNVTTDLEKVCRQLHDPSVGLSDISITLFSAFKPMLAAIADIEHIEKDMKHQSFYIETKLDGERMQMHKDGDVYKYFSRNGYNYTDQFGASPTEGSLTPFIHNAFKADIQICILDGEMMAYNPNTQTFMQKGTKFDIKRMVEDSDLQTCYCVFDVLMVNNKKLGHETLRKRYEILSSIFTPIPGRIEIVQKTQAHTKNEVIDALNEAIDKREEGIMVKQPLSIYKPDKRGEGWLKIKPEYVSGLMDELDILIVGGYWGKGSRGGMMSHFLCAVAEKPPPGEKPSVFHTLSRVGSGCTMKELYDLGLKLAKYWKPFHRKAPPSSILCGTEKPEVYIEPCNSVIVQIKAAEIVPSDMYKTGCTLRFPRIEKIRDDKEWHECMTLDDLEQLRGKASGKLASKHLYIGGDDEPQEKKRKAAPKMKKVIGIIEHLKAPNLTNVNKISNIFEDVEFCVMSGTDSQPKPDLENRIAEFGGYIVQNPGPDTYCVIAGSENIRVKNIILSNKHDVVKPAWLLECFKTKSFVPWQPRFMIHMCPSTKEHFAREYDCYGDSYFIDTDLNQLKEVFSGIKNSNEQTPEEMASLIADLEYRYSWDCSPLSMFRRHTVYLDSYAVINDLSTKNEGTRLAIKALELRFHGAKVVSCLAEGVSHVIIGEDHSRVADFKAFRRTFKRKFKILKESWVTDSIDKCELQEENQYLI

[1] = compound: C/C(=N\NC(=O)C1=CC(=CC=C1)S(=O)(=O)N2CCOCC2)/C3=C(C=CC(=C3)Cl)O
Method in brief: as §1

[2] = compound: C1=CC(=C(C=C1Cl)C2=NC3=NC=CN=C3C(=N2)NC4=CC=NC=C4)F
Method in brief: as §1

[3] = compound: C1=CC(=CC=C1C2=NC3=C(N2)C=C(C=C3)C(=O)N)OC4=CC=C(C=C4)Cl
Method in brief: as §1

[4] = compound: C1=CC2=C(C=CC(=C2)/C=C\3/C(=O)NC(=NCC4=CC=CS4)S3)N=C1
Method in brief: as §1

[5] = compound: C1=CC2=NC=CN=C2C=C1/C=C/3\C(=O)NC(=O)S3
Method in brief: as §1

[6] = compound: C1=CC=C(C=C1)C2=NC(=C(N2)C3=CC=NC=C3)C4=CC(=C(C=C4)Cl)O
Method in brief: as §1

[7] = compound: C1=CC=C2C(=C1)C3=NNC4=CC=CC(=C43)C2=O
Method in brief: as §1

[8] = compound: C1CCN(C1)C(=O)NC2=CC=CC(=C2)NC3=NC=C(C(=N3)NCCC4=CN=CN4)Br
Method in brief: as §1

[9] = compound: C1CN(CCC1(CC2=CC=C(C=C2)Cl)N)C3=NC=NC4=C3C=CN4
Method in brief: as §1

IRAK-1-4 Inhibitor I = compound: C1COCCN1CCN2C3=CC=CC=C3N=C2NC(=O)C4=CC(=CC=C4)[N+](=O)[O-] [IRAK-1-4 Inhibitor I]
Method in brief: as §1

ibrutinib = compound: C=CC(=O)N1CCC[C@@H](n2nc(-c3ccc(Oc4ccccc4)cc3)c3c(N)ncnc32)C1 [ibrutinib]
Method in brief: as §1

[10] = compound: CC(=O)c1cnc2ccc(-c3cc(Cl)c(O)c(Cl)c3)nc2c1N[C@H]1CC[C@H](CN(C)C)CC1
Method in brief: as §1

ralimetinib = compound: CC(C)(C)Cn1c(N)nc2ccc(-c3[nH]c(C(C)(C)C)nc3-c3ccc(F)cc3)nc21 [ralimetinib]
Method in brief: as §1

[11] = compound: CC(C)(O)CC(=O)NCCn1ccc2ncnc(Nc3ccc(Oc4cccc(C(F)(F)F)c4)c(Cl)c3)c21
Method in brief: as §1

[12] = compound: CC(C)C1=C2N=C(C=C(N2N=C1)NCC3=CC=CC=C3)NCCCCCCN
Method in brief: as §1

[13] = compound: CC(C)C[C@@H](C=O)NC(=O)[C@H](CC(C)C)NC(=O)[C@H](CC(C)C)NC(=O)OCc1ccccc1
Method in brief: as §1

pinometostat = compound: CC(C)N(C[C@H]1O[C@@H](n2cnc3c(N)ncnc32)[C@H](O)[C@@H]1O)[C@H]1C[C@@H](CCc2nc3cc(C(C)(C)C)ccc3[nH]2)C1 [pinometostat]
Method in brief: as §1

[14] = compound: CC1=C(C2=C(C=C1)C(=O)C3=CC=CC=C3N2CCCN)C
Method in brief: as §1

[15] = compound: CC1=C(C(CC(=O)N1)C2=CC=C(C=C2)C(F)(F)F)C(=O)NC3=C(C=C4C(=C3)C=NN4)F
Method in brief: as §1

Measured: log2 fold change

LNPK (UniProt Q9C0E8)
inactive: erlotinib 0.011 | [1] -0.028 | [2] 0.05 | [3] 0 | [4] -0.018 | [5] 0.058 | [6] 0 | [7] -0.02 | [8] 0.007 | [9] 0.089 | IRAK-1-4 Inhibitor I 0.041 | ibrutinib 0.013 | [10] 0.004 | ralimetinib -0.019 | [11] 0.016 | [12] 0.05 | [13] -0.011 | pinometostat -0.01 | [14] -0.035

LIG3 (UniProt P49916)
inactive: erlotinib 0.344 | [1] -0.241 | [3] 0.315 | [4] -0.099 | [7] 0.01 | [10] 0.146 | [12] -0.023 | [15] -0.072

LRP6 (UniProt O75581)
inactive: erlotinib 0.114 | [1] -0.417 | [3] 0.061 | [4] 0.093 | [5] -0.034 | [7] 0.036 | [8] -0.104 | [9] 0.12 | IRAK-1-4 Inhibitor I -0.091 | ibrutinib 0.083 | [10] 0 | [12] 0.16 | pinometostat -0.101 | [14] 0.012

LHFPL2 (UniProt Q6ZUX7)
inactive: erlotinib 0.078 | [2] -0.169 | [3] 0.216 | [8] -0.024 | [9] 0.111 | [11] 0.092 | [12] -0.266 | [14] 0.063

LENG8 (UniProt Q96PV6)
inactive: erlotinib -0.072 | [1] 0.133 | [2] 0.091 | [3] 0.108 | [4] -0.024 | [5] -0.037 | [6] -0.141 | [7] 0.096 | [8] 0.152 | [9] -0.229 | IRAK-1-4 Inhibitor I -0.122 | ibrutinib 0 | [10] -0.173 | ralimetinib -0.13 | [11] -0.389 | [13] 0.107 | pinometostat -0.071 | [14] 0.15
active: [12] -0.646

LMNB1 (UniProt P20700)
inactive: erlotinib -0.06 | [1] 0.071 | [2] 0.001 | [3] 0.029 | [4] -0.073 | [5] 0.064 | [6] -0.07 | [7] -0.151 | [8] -0.079 | [9] 0.001 | IRAK-1-4 Inhibitor I -0.004 | ibrutinib -0.03 | [10] -0.22 | ralimetinib 0.015 | [11] 0.091 | [12] -0.048 | [13] 0.031 | pinometostat 0.011 | [14] -0.082

LARP7 isoform 3 (UniProt Q4G0J3)
inactive: erlotinib 0.01 | [1] 0.119 | [2] 0.022 | [3] 0.034 | [4] 0.06 | [5] 0.023 | [6] 0.025 | [7] -0.055 | [8] -0.052 | [9] 0.045 | IRAK-1-4 Inhibitor I -0.061 | ibrutinib 0.031 | [10] 0.063 | ralimetinib 0.111 | [11] 0.021 | [12] -0.246 | [13] -0.057 | pinometostat 0.05
active: [14] -0.383

KXD1 (UniProt Q9BQD3)
inactive: erlotinib 0.069 | [1] 0.018 | [2] 0.011 | [3] -0.005 | [4] 0.083 | [5] 0.024 | [6] 0.01 | [7] 0.018 | [8] 0.022 | [9] 0.036 | ibrutinib 0.092 | [10] -0.073 | ralimetinib -0.053 | [11] 0.034 | [12] -0.181 | [13] 0.041 | [14] 0.057

LRRC14 (UniProt Q15048)
inactive: erlotinib -0.05 | [1] 0.003 | [3] 0.068 | [4] 0.108 | [5] 0.222 | [7] -0.046 | [8] -0.08 | [9] -0.028 | IRAK-1-4 Inhibitor I -0.015 | ibrutinib -0.118 | [10] 0.032 | [12] 0.111 | pinometostat 0.033 | [15] 0.022 | [14] 0.152

LBR (UniProt Q14739)
inactive: erlotinib 0.009 | [1] 0.122 | [2] 0.043 | [3] -0.016 | [4] 0.029 | [5] 0.034 | [6] 0.059 | [7] -0.002 | [8] 0.037 | [9] 0.21 | IRAK-1-4 Inhibitor I -0.044 | ibrutinib -0.092 | [10] 0.038 | ralimetinib -0.001 | [11] -0.211 | [12] -0.168 | [13] -0.083 | pinometostat 0.211 | [14] 0.188

LAMA5 (UniProt O15230)
inactive: erlotinib -0.161 | [1] -0.157 | [2] 0.037 | [3] 0.151 | [4] -0.06 | [7] -0.235 | [8] -0.248 | [9] 0.009 | [10] -0.055 | [11] 0.03 | [12] -0.222 | [15] -0.177 | [14] -0.182

LINS1 (UniProt Q8NG48)
inactive: erlotinib 0.032 | [1] 0.312 | [2] 0.281 | [3] -0.027 | [4] -0.236 | [5] -0.033 | [6] -0.137 | [7] 0.026 | IRAK-1-4 Inhibitor I -0.037 | ibrutinib 0.003 | [10] 0.248 | ralimetinib -0.083 | [11] 0.046 | [12] -0.138 | [13] 0.105 | pinometostat -0.041

LRRC41 (UniProt Q15345)
inactive: erlotinib 0.097 | [3] -0.322 | [5] 0.241 | ibrutinib 0.016 | [12] -0.348

LIMD2 (UniProt Q9BT23)
inactive: erlotinib -0.035 | [1] -0.115 | [3] 0.015 | [4] 0.124 | [7] -0.011 | [8] 0.03 | [9] -0.154 | [10] 0.095 | [12] 0.112 | [14] -0.05

Taken from the entries so far (4 entries):
LRRC14 (UniProt Q15048)
inactive: erlotinib -0.05 | [1] 0.003 | [3] 0.068 | [4] 0.108 | [5] 0.222 | [7] -0.046 | [8] -0.08 | [9] -0.028 | IRAK-1-4 Inhibitor I -0.015 | ibrutinib -0.118 | [10] 0.032 | [12] 0.111 | pinometostat 0.033 | [15] 0.022 | [14] 0.152

LBR (UniProt Q14739)
inactive: erlotinib 0.009 | [1] 0.122 | [2] 0.043 | [3] -0.016 | [4] 0.029 | [5] 0.034 | [6] 0.059 | [7] -0.002 | [8] 0.037 | [9] 0.21 | IRAK-1-4 Inhibitor I -0.044 | ibrutinib -0.092 | [10] 0.038 | ralimetinib -0.001 | [11] -0.211 | [12] -0.168 | [13] -0.083 | pinometostat 0.211 | [14] 0.188

LAMA5 (UniProt O15230)
inactive: erlotinib -0.161 | [1] -0.157 | [2] 0.037 | [3] 0.151 | [4] -0.06 | [7] -0.235 | [8] -0.248 | [9] 0.009 | [10] -0.055 | [11] 0.03 | [12] -0.222 | [15] -0.177 | [14] -0.182

LINS1 (UniProt Q8NG48)
inactive: erlotinib 0.032 | [1] 0.312 | [2] 0.281 | [3] -0.027 | [4] -0.236 | [5] -0.033 | [6] -0.137 | [7] 0.026 | IRAK-1-4 Inhibitor I -0.037 | ibrutinib 0.003 | [10] 0.248 | ralimetinib -0.083 | [11] 0.046 | [12] -0.138 | [13] 0.105 | pinometostat -0.041

Following part:

LEPROT (UniProt O15243)
inactive: erlotinib 0.06 | [1] 0.034 | [2] 0.081 | [3] 0.088 | [4] 0.119 | [7] -0.058 | [8] -0.011 | [9] 0.001 | [10] -0.037 | [11] 0.142 | [14] 0.092
active: [12] -0.777

LARP4 isoform 4 (UniProt Q71RC2)
inactive: erlotinib 0.015 | [1] 0.007 | [2] -0.123 | [3] 0.055 | [4] 0.086 | [5] 0.002 | [6] -0.028 | [7] -0.044 | [8] -0.004 | [9] -0.035 | IRAK-1-4 Inhibitor I -0.091 | ibrutinib 0.037 | [10] -0.128 | ralimetinib 0.068 | [11] 0.046 | [12] -0.19 | [13] 0.059 | pinometostat 0.114 | [14] -0.054

LLGL2 (UniProt Q6P1M3)
inactive: erlotinib 0.16 | [1] -0.062 | [2] 0.022 | [3] 0.022 | [4] -0.009 | [5] 0.03 | [6] -0.257 | [7] 0.023 | IRAK-1-4 Inhibitor I 0.097 | ibrutinib -0.024 | [10] 0.09 | ralimetinib 0.091 | [11] 0.01 | [12] 0.085 | [13] -0.101 | pinometostat 0.009 | [15] 0.043

LMBRD2 (UniProt Q68DH5)
active: [12] -0.244
inactive: erlotinib 0.015 | [1] -0.007 | [2] 0.097 | [3] 0.011 | [4] 0.022 | [5] 0.038 | [6] 0.016 | [7] -0.118 | [8] -0.073 | [9] 0.1 | IRAK-1-4 Inhibitor I 0.14 | ibrutinib -0.034 | [10] 0.034 | ralimetinib -0.016 | [11] -0.021 | [13] -0.093 | pinometostat 0.037 | [14] 0.012

LIMS1 (UniProt P48059)
inactive: [5] 0.113 | IRAK-1-4 Inhibitor I 0.028 | ibrutinib -0.014 | pinometostat -0.156

LIG4 (UniProt P49917)
inactive: [15] -0.4

LCOR isoform 3 (UniProt Q96JN0)
inactive: [1] -0.134 | [4] -0.172 | [7] -0.02 | [10] 0.037
